One assay has as its target human renalase-2 (human) (UniProt Q5VYX0). Put plainly: hybridoma screening on peptide and whole renalase.
In assay [1] the target is human renalase-1 (human) (UniProt Q5VYX0). Put plainly: hybridoma screening on peptide and whole renalase; Biacore. In general terms: Surface plasmon resonance follows binding to a sensor surface in real time, without labels.
For assay [2] the target is unchanged. Put plainly: immunofluorescence on a tissue microarray of normal human pancreas and ductal carcinoma, RNLS channel quantified with AQUAnalysis; target is endogenous tissue RNLS, isoform not specified.
The target is the same in assay [3]. Put plainly: immunohistochemistry (DAB, hematoxylin counterstain) on sections of normal human pancreas and pancreatic ductal adenocarcinoma Grades I-IV; target is endogenous tissue RNLS, isoform not specified.

The chains behind the UniProt entries cited, without tags or fusion partners. Where a name states a change or a piece, a line headed by the entry shows the natural chain unless it says otherwise.
UniProt Q5VYX0: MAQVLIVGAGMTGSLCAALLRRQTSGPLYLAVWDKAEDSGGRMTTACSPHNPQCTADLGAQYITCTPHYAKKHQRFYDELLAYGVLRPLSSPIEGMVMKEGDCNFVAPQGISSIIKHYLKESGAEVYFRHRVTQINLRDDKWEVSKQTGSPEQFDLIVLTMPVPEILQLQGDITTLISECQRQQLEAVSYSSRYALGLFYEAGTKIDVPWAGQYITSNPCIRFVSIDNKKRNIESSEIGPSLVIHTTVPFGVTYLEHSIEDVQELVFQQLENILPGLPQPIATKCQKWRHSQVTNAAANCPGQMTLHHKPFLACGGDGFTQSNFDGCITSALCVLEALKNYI

The values below come from US20210024652A1.

These are yes or no findings as the source states them, for the method shown. Some binding calls cover weakened binding; strength is not graded here.

B1: monoclonal antibody 3A-5-2 (antibody, V domains shown)
VH: QSLEESGGRLVTPGTPLTLTCTVSGFSLNNYHIYWVRQAPGKGLEYIGIIFNGGTYYARWTKGRFTISKTSTTVDLKMTSLTTEDTATYFCARGDGIWGPGTLVTVSL
VL: AQVLTQTPASVSAAVGGTVTINCQASQSVFNNNYLAWYQQKPGQPPKRLIYSASTLASGVSSRFKGSGSGTEFTLTMSGVECDDAATYYCAGSFDCNSGDCVAFGGGTEVVVKG
Regarding B1, in the assay with human renalase-2 (human), the binding entry is given as “binds”.

B2: monoclonal antibody 1D-37-10 (antibody, V domains shown)
VH: QSVEESGGRLVTPGGSLTLTCTVSGFSLSDYAIIWVRQAPGKGLEYIAIIGSSGDTFYATWAKGRFTISKTSTTVDLKMTSLTAADTATYFCAPRYAGTTDYHDAFDPWGPGTLVTVSS
VL: EVVMTQTPASMEAPMGGTVTIKCQASQNIYNYLSWYQQKPGQPPKLLVYKASTLTSGVPSRFKGSGSGTQFTLTISDLECADAATYYCQINYSIYNHYNIIFGGGTEVVVKG
B2: the binding entry with human renalase-1 (human) [1] is “binds”.

B3: monoclonal antibody 1F-26-1 (antibody, V domains shown)
VH: QSVKESEGGLFKPTDTLTLTCTVSGFSLSSYGVTWVRQAPGNGLEWIGLIGDRGTTFYASWAKSRSTITRNTNLNTVTLKMTRLTAADTATYFCARGSGYGARIWGPGTLVTVSS
VL: AQVLTQTPSPVSAAVGGTVTINCQSSQSVYKNNYLAWYQQKPGQPPKLLIYETSKLASGVPPRFSGSGSGTQFTLTISSVQCDDAATYYCQGGYSGVDFMAFGGGTEVVVKG
B3: the binding entry with human renalase-1 (human) [1] is given as “binds”.

B4: monoclonal antibody 1F-42-7 (antibody, V domains shown)
VH: QSVKESEGGLFKPTDTLTLTCTVSGFSLTTYGVTWVRQAPGNGLEWIGLIGDRGTTYYASWVNGRSTITRNTNLNTVTLKMTRLTAADTATYFCARGSGYGARIWGPGTLVTVAS
VL: AQVLTQTPSPMSAALGGTVTINCQSSQTVYNNNYLSWYQQKPGQPPKLLIYETSKLSSGVPPRFSGSGSGTQFTLTISSVQCDDAATYYCQGGYSGVDFMAFGGGTEVVVKG
As for B4, in the assay with human renalase-1 (human) [1], the binding entry is “binds”.

B5: monoclonal antibody 1D-28-4 (antibody, V domains shown)
VH: QSVEESGGRLVTPGTPLTLTCTVSGFSLSSFAVGWVRQAPGKGLEYIGIISSVGITRYASWAAGRFTISKTSTTVDLKITSPTTEDTATYFCARYGYSGDVNRLDLWGQGTLVTVSS
VL: AQVLTQTASPVSAAVGGTVTINCQASQSVYDNNNLAWYQQKPGQPPKQLIYGASTLASGVSSRFKGSGSGTQFTLTISGVQCDDAATYYCLGEFSCSSADCFAFGGGTEVVVKG
Take B5: the binding result in the assay with human renalase-1 (human) [1], with human renalase-1 (human) [2] and in the assay with human renalase-1 (human) [3] was “binds” throughout.
